Results from US20180079906A1 (Ecole Polytechnique Fédérale de Lausanne (EPFL), priority 2016, published 2018).

Assay: general procedure: peptide synthesis; TSTU
Conditions: conjugation step

## c(RGDfK)
Run 1
  conjugation yield: 60%
Run 2
  conjugation yield: 62%
